# Data from PubChem BioAssay AID1043 (National Center for Advancing Translational Sciences (NCATS), 2008).
# Inconclusive means that the source gave no clear call. A potency beside an inconclusive call is a rough fit, not a confirmed value.
# Assay: H358 Cell Viability Secondary Assay for qHTS Assay for Epigenetic Modulators
# Details: H358 NSCLC viability, MTS absorbance, 4 days; calls by dose curve
# Text: NIH Molecular Libraries Screening Centers Network [MLSCN] NIH Chemical Genomics Center [NCGC] MLSCN Grant: 1 X01 MH079860-01 Assay Provider: Elisabeth D. Martinez, University of Texas SW Medical Center NCGC Assay Overview: This secondary assay characterizes selected actives identified in the qHTS of the Locus Derepression (LDR) assay (PubChem AID 597). The LDR assay detects the derepression of a GFP reporter that is stably integrated in a region of the genome of murine c127i mammary cells that is presumably silenced. Compounds that cause derepression of the locus to express GFP are identified by enumerating GFP positive cells using a laser-scanning microplate cytometer. […] H358 cell viability was measured using Cell Titer 96 AQueous One (Promega), an assay which detects the ability of metabolically active cells to reduce a tetrazolium salt substrate (MTS), into a soluble formazan product that can be measured by colorimetry.
# NCGC Assay Protocol Summary Viability assays: H358 cells were plated in 96-well flat bottom tissue culture dishes (Corning) and grown overnight at 37 C and 5% CO2, then treated with increasing concentrations of compounds, incubated for four days, and assayed for viability using the Cell Titer 96 AQueous One kit (Promega) according to the manufacturer's protocol. Absorbance at 490 nm and 650 nm (reference) was measured by a Spectra Max (Molecular Devices). […]
structure (smiles),measurement,value
CN1CSC(=S)N(C)C1,Potency,inconclusive: 20 µM
